{
  "source": "the supplement of paper PMC8728848",
  "assay_in_all_cases": "glycan array binding signal (z-score within array); higher = stronger binding",
  "conditions_in_all_cases": "glycan notation: IUPAC condensed, linker removed",
  "key": {"[1]": {"molecular_target": "Fuc(a1-3)[Gal(b1-4)]GlcNAc(b1-4)Gal(b1-4)[Fuc(a1-3)]GlcNAc", "in_short": "(§1)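 Glycan array data were curated from 3228 arrays in the Consortium for Functional Glycomics database and kept only where the protein sequence was available. Glycan names were converted to IUPAC-condensed notation, and columns mapping to the same glycan were averaged. The binding signal is a within-array Z-score, averaged across arrays of the same protein sequence at different concentrations or buffers and across linkers. Negative Z-scores can be read as non-binding.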"}, "[2]": {"molecular_target": "Fuc(a1-3)[Gal(b1-4)]GlcNAc(b1-4)Gal(b1-4)[Fuc(a1-3)]GlcNAc(b1-4)Gal(b1-4)[Fuc(a1-3)]GlcNAc", "in_short": "as §1"}, "[3]": {"molecular_target": "Fuc(a1-3)[Gal(b1-4)]GlcNAc(b1-6)GalNAc", "in_short": "as §1"}, "[4]": {"molecular_target": "Fuc(a1-3)[Gal(b1-4)]GlcNAc(b1-6)[Gal(b1-3)GlcNAc(b1-3)]Gal(b1-4)Glc", "in_short": "as §1"}, "[5]": {"molecular_target": "Fuc(a1-3)[Gal(b1-4)]GlcNAc6S", "in_short": "as §1"}, "[6]": {"molecular_target": "Fuc(a1-3)[Gal3S(b1-4)]Glc", "in_short": "as §1"}, "[7]": {"molecular_target": "Fuc(a1-3)[Gal3S(b1-4)]GlcNAc", "in_short": "as §1"}, "[8]": {"molecular_target": "Fuc(a1-3)[Gal3S(b1-4)]GlcNAc6S", "in_short": "as §1"}, "[9]": {"molecular_target": "Fuc(a1-3)[GalNAc(b1-4)]GlcNAc", "in_short": "as §1"}, "[10]": {"molecular_target": "Fuc(a1-3)[GalNAc(b1-4)]GlcNAc6S", "in_short": "as §1"}, "Fuc(a1-4)GlcNAc": {"molecular_target": "Fuc(a1-4)GlcNAc", "in_short": "as §1"}, "Fuc(b1-3)GlcNAc": {"molecular_target": "Fuc(b1-3)GlcNAc", "in_short": "as §1"}, "Gal(a1-2)Gal": {"molecular_target": "Gal(a1-2)Gal", "in_short": "as §1"}, "Gal(a1-3)Gal": {"molecular_target": "Gal(a1-3)Gal", "in_short": "as §1"}, "Gal(a1-3)Gal(b1-3)GlcNAc": {"molecular_target": "Gal(a1-3)Gal(b1-3)GlcNAc", "in_short": "as §1"}, "[11]": {"molecular_target": "Gal(a1-3)Gal(b1-3)GlcNAc(b1-2)Man", "in_short": "as §1"}, "[12]": {"molecular_target": "Gal(a1-3)Gal(b1-3)GlcNAc(b1-2)Man(a1-3)[Gal(a1-3)Gal(b1-3)GlcNAc(b1-2)Man(a1-6)]Man(b1-4)GlcNAc(b1-4)GlcNAc", "in_short": "as §1"}, "[13]": {"molecular_target": "Gal(a1-3)Gal(b1-3)GlcNAc(b1-3)GalNAc", "in_short": "as §1"}, "[14]": {"molecular_target": "Gal(a1-3)Gal(b1-3)GlcNAc(b1-6)GalNAc", "in_short": "as §1"}, "[15]": {"molecular_target": "Gal(a1-3)Gal(b1-3)[Fuc(a1-4)]GlcNAc(b1-2)Man(a1-3)[Gal(a1-3)Gal(b1-3)[Fuc(a1-4)]GlcNAc(b1-2)Man(a1-6)]Man(b1-4)GlcNAc(b1-4)GlcNAc", "in_short": "as §1"}, "Gal(a1-3)Gal(b1-4)Glc": {"molecular_target": "Gal(a1-3)Gal(b1-4)Glc", "in_short": "as §1"}, "Gal(a1-3)Gal(b1-4)GlcNAc": {"molecular_target": "Gal(a1-3)Gal(b1-4)GlcNAc", "in_short": "as §1"}, "[16]": {"molecular_target": "Gal(a1-3)Gal(b1-4)GlcNAc(b1-2)Man", "in_short": "as §1"}, "[17]": {"molecular_target": "Gal(a1-3)Gal(b1-4)GlcNAc(b1-2)Man(a1-3)[Gal(a1-3)Gal(b1-4)GlcNAc(b1-2)Man(a1-6)]Man(b1-4)GlcNAc(b1-4)GlcNAc", "in_short": "as §1"}, "[18]": {"molecular_target": "Gal(a1-3)Gal(b1-4)GlcNAc(b1-3)GalNAc", "in_short": "as §1"}, "[19]": {"molecular_target": "Gal(a1-3)Gal(b1-4)GlcNAc(b1-6)GalNAc", "in_short": "as §1"}, "[20]": {"molecular_target": "Gal(a1-3)Gal(b1-4)[Fuc(a1-3)]GlcNAc", "in_short": "as §1"}, "[21]": {"molecular_target": "Gal(a1-3)Gal(b1-4)[Fuc(a1-3)]GlcNAc(b1-2)Man(a1-3)[Gal(a1-3)Gal(b1-4)[Fuc(a1-3)]GlcNAc(b1-2)Man(a1-6)]Man(b1-4)GlcNAc(b1-4)GlcNAc", "in_short": "as §1"}, "Gal(a1-3)GalNAc": {"molecular_target": "Gal(a1-3)GalNAc", "in_short": "as §1"}, "[22]": {"molecular_target": "Gal(a1-3)[Gal(a1-4)]Gal(b1-4)GlcNAc", "in_short": "as §1"}, "[23]": {"molecular_target": "Gal(a1-4)Gal(b1-3)GlcNAc(b1-2)Man(a1-3)[Gal(a1-4)Gal(b1-3)GlcNAc(b1-2)Man(a1-6)]Man(b1-4)GlcNAc(b1-4)GlcNAc", "in_short": "as §1"}, "Gal(a1-4)Gal(b1-4)Glc": {"molecular_target": "Gal(a1-4)Gal(b1-4)Glc", "in_short": "as §1"}, "Gal(a1-4)Gal(b1-4)GlcNAc": {"molecular_target": "Gal(a1-4)Gal(b1-4)GlcNAc", "in_short": "as §1"}, "[24]": {"molecular_target": "Gal(a1-4)Gal(b1-4)GlcNAc(b1-2)Man(a1-3)[Gal(a1-4)Gal(b1-4)GlcNAc(b1-2)Man(a1-6)]Man(b1-4)GlcNAc(b1-4)GlcNAc", "in_short": "as §1"}, "[25]": {"molecular_target": "Gal(a1-4)Gal(b1-4)GlcNAc(b1-3)Gal(b1-4)Glc", "in_short": "as §1"}, "Gal(a1-4)GlcNAc": {"molecular_target": "Gal(a1-4)GlcNAc", "in_short": "as §1"}, "Gal(a1-6)Glc": {"molecular_target": "Gal(a1-6)Glc", "in_short": "as §1"}, "Gal(b1-2)Gal": {"molecular_target": "Gal(b1-2)Gal", "in_short": "as §1"}},
  "note": "Some of the results follow.",
  "data": [
    {"binder": "Epf (Streptococcus pyogenes) (protein) GDHGPEFNGVMVVKAAEAEELPDDLMNFKGTWEVSADGSSGRFFSKGATDSYVFHLIPAKDVKKPGWREHNEVKDSYIKIDKQSIAARYKTSTTAPYSVAFKVNTKSLIKDHDYKITFEQGQIASGITVDYRIGSAFNKTTDDSFKISDESKYASNVKIEGEEQGFKQREQGDKTISFRTLKEGPMSLVLLSKVEKKPQGDLDVEFKNLKIIDVTNPSQLDKGVAYVGNKNVQLTLKSDDGRTNFEGDEISLFNSRGELLQTVTVTKDQQNPISITLSEDQAKSLKNKEKLKVSIKQKQSKKTSKDFFFEVGIDPKVEAKQKEKLLELDKVKKQIEDSINGDAWLPEKPVDLQGDHGLSAWSHPQFEK", "values": [
      {"measurement": "glycan array binding signal (z-score)", "setting": "[1]", "result": -0.114},
      {"measurement": "glycan array binding signal (z-score)", "setting": "[2]", "result": 0.94},
      {"measurement": "glycan array binding signal (z-score)", "setting": "[3]", "result": 0.716},
      {"measurement": "glycan array binding signal (z-score)", "setting": "[4]", "result": -2.21},
      {"measurement": "glycan array binding signal (z-score)", "setting": "[5]", "result": -0.251},
      {"measurement": "glycan array binding signal (z-score)", "setting": "[6]", "result": 0.034},
      {"measurement": "glycan array binding signal (z-score)", "setting": "[7]", "result": 0.269},
      {"measurement": "glycan array binding signal (z-score)", "setting": "[8]", "result": -1.22},
      {"measurement": "glycan array binding signal (z-score)", "setting": "[9]", "result": 2.73},
      {"measurement": "glycan array binding signal (z-score)", "setting": "[10]", "result": 0.079},
      {"measurement": "glycan array binding signal (z-score)", "setting": "Fuc(a1-4)GlcNAc", "result": -0.354},
      {"measurement": "glycan array binding signal (z-score)", "setting": "Fuc(b1-3)GlcNAc", "result": -1.2},
      {"measurement": "glycan array binding signal (z-score)", "setting": "Gal(a1-2)Gal", "result": 1.09},
      {"measurement": "glycan array binding signal (z-score)", "setting": "Gal(a1-3)Gal", "result": -0.937},
      {"measurement": "glycan array binding signal (z-score)", "setting": "Gal(a1-3)Gal(b1-3)GlcNAc", "result": -0.595},
      {"measurement": "glycan array binding signal (z-score)", "setting": "[11]", "result": 0.135},
      {"measurement": "glycan array binding signal (z-score)", "setting": "[12]", "result": 1.25},
      {"measurement": "glycan array binding signal (z-score)", "setting": "[13]", "result": -0.106},
      {"measurement": "glycan array binding signal (z-score)", "setting": "[14]", "result": -0.273},
      {"measurement": "glycan array binding signal (z-score)", "setting": "[15]", "result": 1.08},
      {"measurement": "glycan array binding signal (z-score)", "setting": "Gal(a1-3)Gal(b1-4)Glc", "result": -0.524},
      {"measurement": "glycan array binding signal (z-score)", "setting": "Gal(a1-3)Gal(b1-4)GlcNAc", "result": 0.546},
      {"measurement": "glycan array binding signal (z-score)", "setting": "[16]", "result": 0.554},
      {"measurement": "glycan array binding signal (z-score)", "setting": "[17]", "result": 0.368},
      {"measurement": "glycan array binding signal (z-score)", "setting": "[18]", "result": 0.087},
      {"measurement": "glycan array binding signal (z-score)", "setting": "[19]", "result": -1.75},
      {"measurement": "glycan array binding signal (z-score)", "setting": "[20]", "result": 0.471},
      {"measurement": "glycan array binding signal (z-score)", "setting": "[21]", "result": 0.862},
      {"measurement": "glycan array binding signal (z-score)", "setting": "Gal(a1-3)GalNAc", "result": 0.627},
      {"measurement": "glycan array binding signal (z-score)", "setting": "[22]", "result": 1.59},
      {"measurement": "glycan array binding signal (z-score)", "setting": "[23]", "result": -0.909},
      {"measurement": "glycan array binding signal (z-score)", "setting": "Gal(a1-4)Gal(b1-4)Glc", "result": -0.675},
      {"measurement": "glycan array binding signal (z-score)", "setting": "Gal(a1-4)Gal(b1-4)GlcNAc", "result": 1.3},
      {"measurement": "glycan array binding signal (z-score)", "setting": "[24]", "result": 1.34},
      {"measurement": "glycan array binding signal (z-score)", "setting": "[25]", "result": -0.066},
      {"measurement": "glycan array binding signal (z-score)", "setting": "Gal(a1-4)GlcNAc", "result": -1.69},
      {"measurement": "glycan array binding signal (z-score)", "setting": "Gal(a1-6)Glc", "result": 0.543},
      {"measurement": "glycan array binding signal (z-score)", "setting": "Gal(b1-2)Gal", "result": -0.675}
    ]}
  ]
}
